Results as given in PubChem BioAssay AID504467 (National Center for Advancing Translational Sciences (NCATS), 2011).
In all, about 330,000 compounds went through this assay and about 7,700 (2.3%) were called active. The inconclusive results got no clear call from the source; some entries with a clear call stand among them for comparison. Calls follow the shape of the dose curve; as a rule, active = well fitted inhibition curve with a large enough effect; inconclusive = small, poorly fitted or top-dose-only effect, or effect the other way; inactive = flat fitted curve, though single readings scatter. Potencies beside an inconclusive call are fits to weak or partial responses and may not hold up.
% is scaled to controls: 0 for no effect and ±100 for the full control effect; potency is read from the fitted curve at half-maximal effect.

Assay: qHTS screen for small molecules that inhibit ELG1-dependent DNA repair in human embryonic kidney (HEK293T) cells expressing luciferase-tagged ELG1; also: nearly all actives have a fitted effect of over 55% in size
Settings: HEK293T ELG1-luciferase reporter, luminescence, 16 h, DNA damage induced by 5-fluorouridine; activity change, negative = inhibition: at 46.1 µM (top of the series)
In short: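 Overnight (16 hr) co-exposure of 2,000 cells/well to 5-fluorouridine and compound at 37 °C preceded detection. Luciferase was quantified via ONE-Glo luminescence; loss of signal denotes inhibition.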
In the case of `CCn1ccnc1C(O)c1ccccc1OC` (stereo not given), the “activity change, negative = inhibition” value was inactive: 5.95%. In the case of `CC(NS(=O)(=O)CCNC(=O)c1ccccc1)c1ccccc1` (stereo not given), the Potency was inconclusive: 4.11 µM [activator, partial curve]. In the case of `O=c1[nH]c2cc3c(cc2cc1CN(Cc1cccnc1)C(=S)NCc1ccco1)OCCO3`, the Potency was active: 9.2 µM. With `N#CC[C@H](Cc1ccccc1)N1CC[C@@H](NC(=O)OCc2ccccc2)CCC1=O` the “activity change, negative = inhibition” value was inactive: 7.39%. For `O=C(CCCOc1ccccc1)N1CCN(c2ccccc2)CC1`, the Potency was inconclusive: 18.4 µM [activator, partial curve]. For `COc1ccccc1-c1nc(C(N)=O)c2[nH]c(=O)n(-c3cccc(C)c3)c2n1`, the Potency was inconclusive: 18.4 µM [inhibitor, partial curve, poor fit]. In the case of `CC1(C)NC(=O)N(CC(=O)OCC(=O)Nc2cccc(S(N)(=O)=O)c2)C1=O`, the “activity change, negative = inhibition” value was inactive: 3.81%. For `O=C(c1ccco1)N1CCN(c2ncccn2)CC1`, the Potency was inconclusive: 18.4 µM [activator, single point]. For `O=C(O)c1ccc(N/N=C/c2ccnc3ccccc23)cc1`, the Potency was inconclusive: 3.26 µM [activator, full curve]. For `O=C(COC(=O)c1cc(Cl)cc(Cl)c1)NCc1ccco1`, the “activity change, negative = inhibition” value was inactive: 18.9%. In the case of `OC(COc1ccc2cc(Br)ccc2c1)CN1CCOCC1` (stereo not given), the Potency was inconclusive: 20.6 µM [activator, single point]. With `Cc1ccc(/C=N/NC(=O)CNC(=O)c2cccs2)cc1` the Potency was inconclusive: 29.1 µM [activator, partial curve, poor fit]. In the case of `O=C(c1ccccc1)N1CCC(CC2CC(c3cccc(Br)c3)=NO2)(C(=O)NCC2CCCCC2)CC1` (stereo not given), the Potency was inconclusive: 1.03 µM [inhibitor, full curve, poor fit]. For `NC(=O)c1cccc2c3c([nH]c12)CCCC3`, the Potency was inconclusive: 8.2 µM [activator, partial curve]. With `CC(=O)NCCc1ccc(S(=O)(=O)NCc2ccc3c(c2)OCO3)cc1` the Potency was inconclusive: 0.651 µM [activator, partial curve]. In the case of `O=C1c2ccccc2C(=O)N1CC(O)COc1ccc(Br)cc1` (stereo not given), the “activity change, negative = inhibition” value was inactive: 1.08%. With `COc1ccc(NC(=O)CC2CCCCC2)cc1OC` the Potency was inconclusive: 23.1 µM [activator, single point]. For `O=C(O)c1cc(N/N=C/c2cccs2)ccc1Cl`, the Potency was inconclusive: 4.61 µM [activator, partial curve]. In the case of `Cc1ccc(S(=O)(=O)Cc2sc3ccccc3[n+]2C)cc1`, the “activity change, negative = inhibition” value was inactive: -14.3%. With `CCn1c(SCc2ccc(C(=O)Nc3nccs3)cc2)nnc1-c1ccc(NC(C)=O)cc1` the Potency was inconclusive: 18.4 µM [inhibitor, partial curve]. In the case of `CCOC(=O)c1c(CN2CCOCC2)oc2ccc(OC)cc12`, the “activity change, negative = inhibition” value was inactive: -4.01%. In the case of `O=S(=O)(c1ccc(Cl)s1)N1CCCc2cccc(O)c21`, the Potency was inconclusive: 20.6 µM [activator, partial curve]. With `CCC(=O)Nc1cccc(C(=O)OCC(=O)c2ccccc2Cl)c1` the Potency was inconclusive: 13 µM [activator, partial curve]. With `COc1ccc(NC(=O)CN(C)C(=O)Cc2n[nH]c(=O)c3ccccc23)cc1` the Potency was inconclusive: 29.1 µM [activator, single point]. In the case of `Cn1c(SCC(=O)Nc2ccc(N3CCOCC3)cc2)nnc1-c1ccco1`, the Potency was inconclusive: 29.1 µM [activator, single point]. For `Brc1ccc(-c2csc(/N=C/N3CCOCC3)n2)cc1`, the Potency was inconclusive: 9.2 µM [activator, partial curve]. With `Cc1cccc(CC(C)NC(=O)c2oc3c(F)cccc3c2C)n1` (stereo not given) the Potency was inconclusive: 29.1 µM [inhibitor, single point]. For `CCN(CC)C(=O)C1CCCN(c2ncnc3c2cnn3-c2cccc(C)c2)C1` (stereo not given), the Potency was inconclusive: 20.6 µM [inhibitor, single point]. With `CC(C)[C@H](NS(=O)(=O)c1ccccc1)C(=O)OCC(=O)NC(=O)NC1CCCCC1` the Potency was active: 16.4 µM. With `CC1(C)C=Cc2c(c3c(c4c(=O)c(-c5ccc(O)cc5)coc24)OC(C)(C)CC3)O1` the Potency was inconclusive: 29.1 µM [inhibitor, single point]. In the case of `O=C(c1ccc([N+](=O)[O-])cc1)N1CCN(C(=O)C2CCCCC2)CC1`, the “activity change, negative = inhibition” value was inactive: 0.284%. In the case of `CC1CN(S(=O)(=O)c2ccc(C(=O)Nc3nnc(-c4ccc5c(c4)CCCC5)o3)cc2)CC(C)O1` (stereo not given), the Potency was active: 2.59 µM. With `CCOC(=O)C1(Cc2cccc(Cl)c2)CCCN(C(=O)c2cnn(CC)c2)C1` (stereo not given) the Potency was inconclusive: 18.3 µM [activator, single point]. For `Cc1ccc(C=Nc2ccccc2C(N)=O)o1`, the Potency was inconclusive: 16.4 µM [activator, partial curve]. For `COc1ccc(-c2cn(-c3ccc(Cl)cc3)c3[n+]2CCCCC3)cc1`, the Potency was active: 11.6 µM. In the case of `O=C(/C=C/c1cccc([N+](=O)[O-])c1)NC(=S)Nc1ccccc1C(=O)O`, the “activity change, negative = inhibition” value was inactive: 12.7%. In the case of `COc1ccc2nc(NC(=O)CSc3nnc(-c4ccoc4C)n3C)sc2c1`, the Potency was inconclusive: 5.17 µM [activator, full curve]. In the case of `COc1cc(C(=O)Nc2ccc(C)c(S(=O)(=O)N(C)C)c2)ccc1OCC(=O)N1CCOCC1`, the Potency was inconclusive: 23.1 µM [activator, partial curve, poor fit]. For `COc1ccc(C(=O)CC(CC(=O)c2ccc(OC)cc2)C(=O)O)cc1`, the Potency was inconclusive: 12.6 µM [activator, partial curve, poor fit]. In the case of `Cc1oc2ccccc2c1CNC(=O)N(C)C`, the Potency was inconclusive: 3.66 µM [inhibitor, partial curve, poor fit]. In the case of `CCn1c(C)nc2cc(C(=O)N=Nc3c(O)[nH]c4c(C)cc(C)cc34)ccc21`, the Potency was inconclusive: 1.84 µM [inhibitor, full curve]. In the case of `CCn1c(/C=C/c2ccccc2Cl)nc2ccccc2c1=O`, the Potency was inconclusive: 6.51 µM [activator, partial curve, poor fit]. For `O=C(COc1ccccc1)Nc1ccccc1N1CCN(c2ccc(F)cc2)CC1`, the “activity change, negative = inhibition” value was inactive: -1.26%. In the case of `CN(Cc1ccccc1)S(=O)(=O)c1ccc(Cl)c(C(=O)NCCc2ccccn2)c1`, the Potency was inconclusive: 29.1 µM [inhibitor, single point]. In the case of `O=C(NC1=NCCS1)c1sc2cc(F)ccc2c1Cl`, the Potency was inconclusive: 4.11 µM [activator, full curve]. In the case of `COc1cccc(OC)c1OCCN1CCN(C(c2ccccc2)c2ccccc2)CC1`, the “activity change, negative = inhibition” value was inactive: -23.6%. For `Cc1ccc(S(=O)(=O)N2CCN(C(=O)COC(=O)C3(C)CC3(Cl)Cl)CC2)c(C)c1` (stereo not given), the Potency was inconclusive: 35.5 µM [inhibitor, single point]. For `CSc1ccccc1NC(=O)Nc1ccc(Cl)cc1`, the Potency was inconclusive: 4.61 µM [activator, full curve, poor fit]. With `CN(C)c1ccc(/C=C/c2nc3ccccc3s2)cc1` the “activity change, negative = inhibition” value was inactive: -26.3%. In the case of `O=C(O)C(=O)/C(=C\c1ccc([N+](=O)[O-])cc1)c1ccc2ccccc2n1`, the Potency was inconclusive: 3.66 µM [activator, partial curve]. With `O=C(c1cccc(F)c1)N1CCc2ccccc21` the “activity change, negative = inhibition” value was inactive: 8.09%. In the case of `CCNC(=S)NN(c1ccccc1)c1ccccc1`, the Potency was inconclusive: 29.1 µM [activator, single point]. For `COc1ccc(C(=O)Oc2ccc(C(C)=O)cc2)c(OC)c1`, the Potency was inconclusive: 20.6 µM [activator, single point]. In the case of `CC(C)(C)c1cc(CCC(=O)NCCc2ccccn2)cc(C(C)(C)C)c1O`, the Potency was inconclusive: 0.82 µM [inhibitor, partial curve, poor fit]. For `O=C([O-])c1ccccc1-[n+]1c(-c2ccccc2)cc(-c2ccccc2)cc1-c1ccccc1`, the “activity change, negative = inhibition” value was inactive: 15.9%. In the case of `COCCn1c(SCC(=O)Nc2ccccc2OC)nc2ccccc2c1=O`, the “activity change, negative = inhibition” value was inactive: -11.1%. In the case of `Cc1ccc(S(=O)(=O)Nc2cc(=O)[nH]c(SCc3ccccc3Cl)n2)cc1`, the Potency was inconclusive: 4.61 µM [inhibitor, single point]. With `Cc1onc(-c2c(Cl)cccc2Cl)c1C(=O)OCC(=O)c1ccccc1` the “activity change, negative = inhibition” value was inactive: 1.29%. In the case of `CCc1cc(=O)oc2cc(OCC=C(C)C)ccc12`, the Potency was inconclusive: 11.6 µM [activator, partial curve, poor fit]. For `Cc1cc2[nH]c(=O)c(=O)[nH]c2cc1S(=O)(=O)N1CCN(c2cccc(C(F)(F)F)c2)CC1`, the “activity change, negative = inhibition” value was inactive: 1.67%. With `CCOc1cc(/C=N/NC(=O)CN2CCOCC2)ccc1OCc1ccccc1` the “activity change, negative = inhibition” value was inactive: 0.929%. For `O=C(COC(=O)/C=C/c1ccc(OC(F)F)cc1)NC1CCCCCCC1`, the Potency was inconclusive: 20.6 µM [activator, single point]. With `COc1ccc(NC(=O)Cc2ccc(Cl)cc2)cc1NC(=O)c1ccco1` the Potency was inconclusive: 29.1 µM [inhibitor, single point]. In the case of `CCOc1ccccc1C(=O)OC(C)C(=O)Nc1ccc(S(=O)(=O)N2CCCC2)cc1` (stereo not given), the “activity change, negative = inhibition” value was inactive: -25%. In the case of `Cc1ccc(C2CC2C(=O)NNC(=S)Nc2cccc(Cl)c2)cc1` (stereo not given), the “activity change, negative = inhibition” value was inactive: -18.2%. For `O=C(Nc1ccc(Cl)cc1)c1ccco1`, the Potency was inconclusive: 20.6 µM [activator, single point]. For `Cc1cccc(Nc2nc(-c3cccs3)cs2)n1`, the Potency was inconclusive: 2.06 µM [activator, partial curve]. In the case of `CCCc1cc(C(=O)Nc2cccc(C(C)=O)c2)no1`, the Potency was inconclusive: 16.4 µM [activator, partial curve]. In the case of `CS(=O)(=O)Nc1ccc(C(=O)NCCSC2CCCCC2)cc1`, the Potency was inconclusive: 23.1 µM [inhibitor, partial curve, poor fit]. For `O=C(Cc1ccc(F)cc1)Nc1nnc(-c2ccc(F)cc2)o1`, the Potency was inconclusive: 16.4 µM [inhibitor, single point].
